These are yes or no findings as the source states them, for the method shown. For part of these data: Binding seen in cells or lysates may run through a third protein. Some binding calls cover weakened binding; strength is not graded here.
Tests used:
[1] = target: HIF2A, endogenous in primary human cardiomyocytes (human (endogenous in primary human cardiomyocytes)) (UniProt Q99814); assay: proximity ligation; fixed primary human cardiomyocytes after hypoxia (1% O2; 0, 1, 4 or 8 h); rabbit anti-BMAL1 with mouse anti-HIF2A or mouse anti-HIF1A; Duolink probes
[2] = target: HIF1A, endogenous in primary human cardiomyocytes (human (endogenous in primary human cardiomyocytes)) (UniProt Q16665); assay: as above
[3] = target: HIF2A, endogenous in primary human cardiomyocytes (human (endogenous in primary human cardiomyocytes)) (UniProt Q99814); assay: co-IP; endogenous proteins of primary human cardiomyocytes; hypoxia (1% O2) for 0-8 h, or 4 h at CT20 and CT32 after dexamethasone synchronisation; IP with anti-HIF2A; western blot
[4] = target: BMAL1–Flag (pcDNA3-mBmal1) (mouse) (UniProt Q9WTL8); assay: co-IP; HEK293 cells overexpressing BMAL1-Flag (pcDNA3-mBmal1), normoxia or hypoxia (1% O2, 4 h); cytoplasmic and nuclear fractions; IP with anti-Flag (reciprocal IP with anti-HIF2A in Extended Data Fig. 2b); western blot
[5] = target: N-terminal region of mouse BMAL1 protein (residues 68–488) with a C-terminal Flag tag (mouse) (UniProt Q9WTL8); assay: pull-down; BMAL1-Flag captured from E. coli lysate on anti-Flag M2 beads and washed; purified His-HIF2A or His-HIF1A added, 40 min at 4 °C; 20 mM HEPES pH 7.4, 10% glycerol, 0.01% Triton X-100, 300 mM NaCl, 5 mM MgCl2, 1 mM DTT; eluted with Flag peptide; blots anti-Flag and anti-His; both purified

Sequences of proteins named here, by UniProt entry; tags and fusion partners are left off. A change or cut given only in a name is not applied to a line headed by its entry. A line that says so, or that is headed by a name, gives the form on record, which may keep a tag or linker. Residues count along the entry.
UniProt Q99814: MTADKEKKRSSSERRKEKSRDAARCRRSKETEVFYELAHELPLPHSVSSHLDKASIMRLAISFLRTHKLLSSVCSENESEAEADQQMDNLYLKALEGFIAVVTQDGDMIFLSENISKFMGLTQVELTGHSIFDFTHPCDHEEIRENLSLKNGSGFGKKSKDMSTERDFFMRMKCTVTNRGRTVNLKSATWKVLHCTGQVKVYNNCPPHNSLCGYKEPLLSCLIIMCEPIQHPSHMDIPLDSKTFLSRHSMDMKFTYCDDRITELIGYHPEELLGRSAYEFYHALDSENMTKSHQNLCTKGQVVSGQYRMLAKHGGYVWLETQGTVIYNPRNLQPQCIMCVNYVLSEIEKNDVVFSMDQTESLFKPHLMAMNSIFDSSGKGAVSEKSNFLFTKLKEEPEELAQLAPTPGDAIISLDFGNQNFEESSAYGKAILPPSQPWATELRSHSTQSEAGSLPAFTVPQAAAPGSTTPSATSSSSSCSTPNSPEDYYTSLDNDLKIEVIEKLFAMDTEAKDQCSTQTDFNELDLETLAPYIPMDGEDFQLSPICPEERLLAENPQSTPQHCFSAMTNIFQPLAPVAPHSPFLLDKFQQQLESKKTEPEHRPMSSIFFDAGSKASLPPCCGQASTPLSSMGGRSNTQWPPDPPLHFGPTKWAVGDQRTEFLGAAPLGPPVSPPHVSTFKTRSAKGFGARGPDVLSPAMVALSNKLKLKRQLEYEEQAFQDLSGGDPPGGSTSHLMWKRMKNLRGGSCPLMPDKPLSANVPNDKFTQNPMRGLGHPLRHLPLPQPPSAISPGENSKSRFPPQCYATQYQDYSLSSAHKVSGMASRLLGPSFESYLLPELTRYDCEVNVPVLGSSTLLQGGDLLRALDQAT
UniProt Q16665: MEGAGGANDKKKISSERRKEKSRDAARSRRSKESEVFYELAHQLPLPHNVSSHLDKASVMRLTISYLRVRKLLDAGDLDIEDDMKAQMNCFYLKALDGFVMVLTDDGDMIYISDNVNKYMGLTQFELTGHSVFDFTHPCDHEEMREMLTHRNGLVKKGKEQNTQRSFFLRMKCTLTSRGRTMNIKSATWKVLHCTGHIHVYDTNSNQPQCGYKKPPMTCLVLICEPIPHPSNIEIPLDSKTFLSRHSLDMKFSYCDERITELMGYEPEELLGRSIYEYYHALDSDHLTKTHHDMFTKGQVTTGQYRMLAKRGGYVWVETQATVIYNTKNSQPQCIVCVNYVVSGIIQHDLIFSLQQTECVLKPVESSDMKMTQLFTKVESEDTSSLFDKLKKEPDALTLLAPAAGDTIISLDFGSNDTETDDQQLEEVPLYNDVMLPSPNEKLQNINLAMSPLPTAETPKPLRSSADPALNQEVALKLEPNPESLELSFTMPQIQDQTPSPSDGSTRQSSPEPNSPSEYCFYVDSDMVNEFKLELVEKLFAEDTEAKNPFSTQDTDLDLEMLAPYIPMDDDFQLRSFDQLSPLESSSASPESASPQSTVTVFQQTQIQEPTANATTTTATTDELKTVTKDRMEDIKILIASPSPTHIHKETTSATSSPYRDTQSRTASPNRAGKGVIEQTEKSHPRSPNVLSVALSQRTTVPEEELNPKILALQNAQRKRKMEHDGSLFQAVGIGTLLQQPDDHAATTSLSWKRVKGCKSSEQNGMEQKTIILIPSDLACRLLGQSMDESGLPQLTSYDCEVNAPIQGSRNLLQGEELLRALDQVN
BMAL1–Flag (pcDNA3-mBmal1) (Q9WTL8, form named): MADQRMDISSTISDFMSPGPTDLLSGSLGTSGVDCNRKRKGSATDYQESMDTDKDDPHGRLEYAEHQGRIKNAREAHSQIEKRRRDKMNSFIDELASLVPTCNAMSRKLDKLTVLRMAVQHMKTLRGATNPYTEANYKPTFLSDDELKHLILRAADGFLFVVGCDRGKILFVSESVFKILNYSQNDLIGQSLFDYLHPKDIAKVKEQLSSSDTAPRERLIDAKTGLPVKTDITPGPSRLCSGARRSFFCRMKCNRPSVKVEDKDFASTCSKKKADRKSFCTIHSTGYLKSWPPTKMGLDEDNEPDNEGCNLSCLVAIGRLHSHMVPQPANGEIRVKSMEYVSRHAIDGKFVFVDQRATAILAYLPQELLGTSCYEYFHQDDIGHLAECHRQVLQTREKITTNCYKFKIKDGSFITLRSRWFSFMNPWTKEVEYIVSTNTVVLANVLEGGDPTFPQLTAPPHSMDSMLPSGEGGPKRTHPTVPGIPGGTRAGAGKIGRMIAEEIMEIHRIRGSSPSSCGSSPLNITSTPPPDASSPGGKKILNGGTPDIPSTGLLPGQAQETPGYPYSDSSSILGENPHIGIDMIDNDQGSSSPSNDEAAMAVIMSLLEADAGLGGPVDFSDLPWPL
N-terminal region of mouse BMAL1 protein (residues 68–488) with a C-terminal Flag tag (Q9WTL8, form named): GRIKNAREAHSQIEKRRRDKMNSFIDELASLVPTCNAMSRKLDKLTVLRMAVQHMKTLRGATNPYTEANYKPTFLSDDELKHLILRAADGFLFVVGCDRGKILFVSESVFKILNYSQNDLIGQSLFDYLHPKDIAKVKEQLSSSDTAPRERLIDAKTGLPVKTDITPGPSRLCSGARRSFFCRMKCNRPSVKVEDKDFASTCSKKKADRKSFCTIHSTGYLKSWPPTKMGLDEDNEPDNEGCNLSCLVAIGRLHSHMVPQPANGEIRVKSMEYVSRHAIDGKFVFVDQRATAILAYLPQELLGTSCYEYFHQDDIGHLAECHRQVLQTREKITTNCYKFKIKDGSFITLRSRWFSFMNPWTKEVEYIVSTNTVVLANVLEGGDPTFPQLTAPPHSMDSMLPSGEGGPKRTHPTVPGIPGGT
UniProt O00327: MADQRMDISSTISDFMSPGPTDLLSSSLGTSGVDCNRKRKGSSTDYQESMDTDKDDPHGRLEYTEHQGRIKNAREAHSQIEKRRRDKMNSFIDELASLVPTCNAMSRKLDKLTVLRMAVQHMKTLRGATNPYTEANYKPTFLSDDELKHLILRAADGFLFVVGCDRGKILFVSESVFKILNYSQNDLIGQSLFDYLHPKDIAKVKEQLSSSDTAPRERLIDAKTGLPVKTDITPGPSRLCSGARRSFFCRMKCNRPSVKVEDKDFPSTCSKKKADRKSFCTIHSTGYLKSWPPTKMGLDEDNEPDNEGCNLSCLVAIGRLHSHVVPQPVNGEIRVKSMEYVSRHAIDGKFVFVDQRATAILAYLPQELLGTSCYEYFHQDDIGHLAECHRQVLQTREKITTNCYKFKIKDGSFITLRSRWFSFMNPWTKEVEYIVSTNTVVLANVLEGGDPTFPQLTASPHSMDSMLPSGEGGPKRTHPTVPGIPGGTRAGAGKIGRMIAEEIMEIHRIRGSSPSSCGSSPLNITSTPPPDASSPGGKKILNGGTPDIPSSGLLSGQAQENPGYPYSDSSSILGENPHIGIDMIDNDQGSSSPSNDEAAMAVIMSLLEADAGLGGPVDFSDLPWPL
UniProt Q61221: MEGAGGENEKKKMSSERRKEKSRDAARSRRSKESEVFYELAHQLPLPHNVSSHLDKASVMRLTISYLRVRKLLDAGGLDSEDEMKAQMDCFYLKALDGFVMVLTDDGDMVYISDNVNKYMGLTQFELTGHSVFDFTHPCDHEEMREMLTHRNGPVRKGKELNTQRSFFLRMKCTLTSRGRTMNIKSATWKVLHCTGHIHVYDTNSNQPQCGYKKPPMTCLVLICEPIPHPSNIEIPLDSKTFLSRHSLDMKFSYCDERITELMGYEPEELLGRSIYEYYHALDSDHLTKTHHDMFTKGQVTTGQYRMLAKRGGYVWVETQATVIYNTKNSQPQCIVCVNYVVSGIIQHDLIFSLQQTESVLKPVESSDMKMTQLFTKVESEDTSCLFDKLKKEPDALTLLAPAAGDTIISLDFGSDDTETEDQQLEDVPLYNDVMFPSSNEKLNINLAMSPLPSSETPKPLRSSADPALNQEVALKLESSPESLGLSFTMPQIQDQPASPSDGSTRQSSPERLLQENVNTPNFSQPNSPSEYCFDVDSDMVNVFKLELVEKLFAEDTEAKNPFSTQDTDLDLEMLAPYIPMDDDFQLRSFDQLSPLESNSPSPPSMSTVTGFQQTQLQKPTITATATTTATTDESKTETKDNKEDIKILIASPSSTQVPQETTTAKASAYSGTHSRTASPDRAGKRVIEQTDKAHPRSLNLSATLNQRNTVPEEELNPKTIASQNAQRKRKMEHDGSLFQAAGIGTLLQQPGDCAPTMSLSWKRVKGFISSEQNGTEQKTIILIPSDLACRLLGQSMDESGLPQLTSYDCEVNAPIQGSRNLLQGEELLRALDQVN

“BMAL1, endogenous in primary human cardiomyocytes (from UniProt O00327 1-626)” was tested, and the binding [1] was “binds”, the binding [2] was “binds” and the binding [3] was “binds”.

For “HIF1A, endogenous in HEK293 cells (from UniProt Q16665 1-826)”, the binding [4] was “binds weakly”.

With “N-terminal portion of mouse HIF1A (residues 13–357) with a 6×His tag at the N terminus (from UniProt Q61221 13-357) (domain or fragment)” the binding [5] was “binds weakly”.

“hypoxia-inducible factor 2 alpha (HIF2A), endogenous in HEK293 cells (from UniProt Q99814 1-870)” was tested, and the binding [4] was “binds”.

Source: publication PMC12095075
